Melanoma cell counts after drug treatment

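Human melanoma cells were exposed to a pair of drugs for 72 h in 1,536-well plates and read by automated microscopy after fixing and staining. Each value is the count of nuclei relative to DMSO-treated wells, in %, so that 100 equals the control. Every drug was used at one fixed concentration, the higher of two screened. No replicate spread is given; individual values may be noisy.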 This is part of the screen, not chosen by result.

All values are for the listed drug together with MK-1775 (0.1 µM): C=CCn1c(=O)c2cnc(Nc3ccc(N4CCN(C)CC4)cc3)nc2n1-c1cccc(C(C)(C)O)n1

Compounds and concentrations:
darinaparsin (2 µM): C[As](C)SC[C@H](NC(=O)CC[C@H](N)C(=O)O)C(=O)NCC(=O)O
nilotinib (1 µM): Cc1cn(-c2cc(NC(=O)c3ccc(C)c(Nc4nccc(-c5cccnc5)n4)c3)cc(C(F)(F)F)c2)cn1
bexarotene (10 µM): C=C(c1ccc(C(=O)O)cc1)c1cc2c(cc1C)C(C)(C)CCC2(C)C
cediranib (2 µM): COc1cc2c(Oc3ccc4[nH]c(C)cc4c3F)ncnc2cc1OCCCN1CCCC1
temozolomide (10 µM): Cn1nnc2c(C(N)=O)ncn2c1=O
lenalidomide (5 µM): Nc1cccc2c1CN(C1CCC(=O)NC1=O)C2=O (stereo not given)
KU-0063794 (0.1 µM): COc1ccc(-c2ccc3c(N4CCOCC4)nc(N4C[C@@H](C)O[C@@H](C)C4)nc3n2)cc1CO
dovitinib (0.5 µM): CN1CCN(c2ccc3nc(-c4c(N)c5c(F)cccc5[nH]c4=O)[nH]c3c2)CC1
PF-562271 (0.4 µM): CN(c1ncccc1CNc1nc(Nc2ccc3c(c2)CC(=O)N3)ncc1C(F)(F)F)S(C)(=O)=O
YM155 (0.002 µM): COCC[n+]1c2c(n(Cc3cnccn3)c1C)C(=O)c1ccccc1C2=O
ENMD-2076 (0.2 µM): Cc1cc(Nc2cc(N3CCN(C)CC3)nc(/C=C/c3ccccc3)n2)n[nH]1
OSU-03012 (5 µM): NCC(=O)Nc1ccc(-n2nc(C(F)(F)F)cc2-c2ccc3c(ccc4ccccc43)c2)cc1
crizotinib (1 µM): C[C@@H](Oc1cc(-c2cnn(C3CCNCC3)c2)cnc1N)c1c(Cl)ccc(F)c1Cl
veliparib (7 µM): C[C@]1(c2nc3c(C(N)=O)cccc3[nH]2)CCCN1
GW9662 (10 µM): O=C(Nc1ccccc1)c1cc([N+](=O)[O-])ccc1Cl
KU-55933 (5 µM): O=c1cc(-c2cccc3c2Sc2ccccc2S3)oc(N2CCOCC2)c1
U73122 (2 µM): COc1ccc2c(c1)CCC1C2CCC2(C)C(NCCCCCCN3C(=O)C=CC3=O)CCC12 (stereo not given)
ABT-263 (2 µM): CC1(C)CCC(c2ccc(Cl)cc2)=C(CN2CCN(c3ccc(C(=O)NS(=O)(=O)c4ccc(N[C@H](CCN5CCOCC5)CSc5ccccc5)c(S(=O)(=O)C(F)(F)F)c4)cc3)CC2)C1

* temozolomide | COLO 792: 60.1; COLO 829: 76.6; COLO 800: 45.4; C32: 80.0
* OSU-03012 | COLO 792: 74.8; COLO 829: 67.1; COLO 800: 56.0; C32: 75.4
* ABT-263 | COLO 792: 6.3; COLO 829: 96.2; COLO 800: 39.3; C32: 73.6
* darinaparsin | COLO 792: 51.8; COLO 829: 59.4; COLO 800: 43.0; C32: 83.4
* veliparib | COLO 792: 58.5; COLO 829: 96.6; COLO 800: 64.3; C32: 96.0
* KU-55933 | COLO 792: 78.2; COLO 829: 80.8; COLO 800: 84.3; C32: 83.8
* nilotinib | COLO 792: 49.1; COLO 829: 97.2; COLO 800: 103; C32: 82.3
* bexarotene | COLO 792: 89.8; COLO 829: 71.7; COLO 800: 93.6; C32: 93.8
* GW9662 | COLO 792: 77.9; COLO 829: 38.7; COLO 800: 56.8; C32: 93.5
* KU-0063794 | COLO 792: 56.1; COLO 829: 83.4; COLO 800: 69.9; C32: 101
* lenalidomide | COLO 792: 67.3; COLO 829: 94.0; COLO 800: 56.9; C32: 90.0
* cediranib | COLO 792: 47.5; COLO 829: 80.3; COLO 800: 57.6; C32: 70.3
* YM155 | COLO 792: 71.2; COLO 829: 66.2; COLO 800: 24.2; C32: 85.7
* PF-562271 | COLO 792: 58.6; COLO 829: 61.2; COLO 800: 84.2; C32: 65.8
* U73122 | COLO 792: 80.1; COLO 829: 85.2; COLO 800: 68.8; C32: 52.1
* ENMD-2076 | COLO 792: 43.9; COLO 829: 73.7; COLO 800: 45.2; C32: 89.1
* crizotinib | COLO 792: 72.8; COLO 829: 79.4; COLO 800: 43.7; C32: 73.9
* dovitinib | COLO 792: 54.2; COLO 829: 51.8; COLO 800: 68.0; C32: 72.8

Once more, the final 2:

- crizotinib : COLO 792: 72.8; COLO 829: 79.4; COLO 800: 43.7; C32: 73.9
- dovitinib : COLO 792: 54.2; COLO 829: 51.8; COLO 800: 68.0; C32: 72.8

From a melanoma drug combination screen (doi:10.1371/journal.pone.0140310); values rounded.